According to paper PMC10277729:
These are yes or no findings as the source states them, for the method shown. Binding seen in cells or lysates may run through a third protein. Some results given as binding are weak or reduced against the parent protein; the word gives no strength. Sequences can lack the tags named with a protein.

Biological target: T1, FLAG-FAM111B (human) (UniProt Q6SJ93)
T1 sequence: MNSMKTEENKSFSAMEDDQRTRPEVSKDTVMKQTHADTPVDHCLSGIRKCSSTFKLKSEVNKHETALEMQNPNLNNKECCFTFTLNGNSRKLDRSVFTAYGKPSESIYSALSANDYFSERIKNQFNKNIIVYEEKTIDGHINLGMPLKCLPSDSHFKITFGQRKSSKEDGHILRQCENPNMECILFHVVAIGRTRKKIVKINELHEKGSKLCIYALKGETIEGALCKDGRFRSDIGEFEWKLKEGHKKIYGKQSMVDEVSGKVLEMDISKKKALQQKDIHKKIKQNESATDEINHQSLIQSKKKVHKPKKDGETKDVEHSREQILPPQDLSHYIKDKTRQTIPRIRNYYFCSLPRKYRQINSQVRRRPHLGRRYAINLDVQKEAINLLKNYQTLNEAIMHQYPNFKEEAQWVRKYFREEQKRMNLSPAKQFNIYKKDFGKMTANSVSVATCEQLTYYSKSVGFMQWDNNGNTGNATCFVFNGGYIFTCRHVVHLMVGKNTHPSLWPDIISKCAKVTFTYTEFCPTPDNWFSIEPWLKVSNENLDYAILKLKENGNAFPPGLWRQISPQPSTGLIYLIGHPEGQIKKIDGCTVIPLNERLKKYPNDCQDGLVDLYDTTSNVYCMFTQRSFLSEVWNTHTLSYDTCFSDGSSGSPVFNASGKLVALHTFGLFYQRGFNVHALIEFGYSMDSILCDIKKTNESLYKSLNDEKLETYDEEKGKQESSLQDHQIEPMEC
Test: co-IP; transiently transfected HEK293T lysed in 20 mM HEPES pH7.4, 150 mM KCl, 10% glycerol, 2 mM MgCl2, 0.5 mM DTT, 0.5% NP-40 with benzonase; M2 anti-FLAG agarose 2 h at 4°C, eluted with 3xFLAG peptide, immuno-blots

B1: NUP42 (protein, UniProt O15504 1-423)
chain: MAICQFFLQGRCRFGDRCWNEHPGARGAGGGRQQPQQQPSGNNRRGWNTTSQRYSNVIQPSSFSKSTPWGGSRDQEKPYFSSFDSGASTNRKEGFGLSENPFASLSPDEQKDEKKLLEGIVKDMEVWESSGQWMFSVYSPVKKKPNISGFTDISPEELRLEYHNFLTSNNLQSYLNSVQRLINQWRNRVNELKSLNISTKVALLSDVKDGVNQAAPAFGFGSSQAATFMSPGFPVNNSSSDNAQNFSFKTNSGFAAASSGSPAGFGSSPAFGAAASTSSGISTSAPAFGFGKPEVTSAASFSFKSPAASSFGSPGFSGLPASLATGPVRAPVAPAFGGGSSVAGFGSPGSHSHTAFSKPSSDTFGNSSISTSLSASSSIIATDNVLFTPRDKLTVEELEQFQSKKFTLGKIPLKPPPLELLNV
- binding: binds
